Results as given in PMC6189209.
No constants are given. Whether binding was seen depends on the method and setting. In cells and extracts the contact can be indirect. Here binding means that the protein was enriched with, or labelled near, the bait; the list need not be complete. For part of these data: No binding means not detected with the bait.

By UniProt entry, the sequences of proteins in these tests, tags left out.
UniProt Q9UM07: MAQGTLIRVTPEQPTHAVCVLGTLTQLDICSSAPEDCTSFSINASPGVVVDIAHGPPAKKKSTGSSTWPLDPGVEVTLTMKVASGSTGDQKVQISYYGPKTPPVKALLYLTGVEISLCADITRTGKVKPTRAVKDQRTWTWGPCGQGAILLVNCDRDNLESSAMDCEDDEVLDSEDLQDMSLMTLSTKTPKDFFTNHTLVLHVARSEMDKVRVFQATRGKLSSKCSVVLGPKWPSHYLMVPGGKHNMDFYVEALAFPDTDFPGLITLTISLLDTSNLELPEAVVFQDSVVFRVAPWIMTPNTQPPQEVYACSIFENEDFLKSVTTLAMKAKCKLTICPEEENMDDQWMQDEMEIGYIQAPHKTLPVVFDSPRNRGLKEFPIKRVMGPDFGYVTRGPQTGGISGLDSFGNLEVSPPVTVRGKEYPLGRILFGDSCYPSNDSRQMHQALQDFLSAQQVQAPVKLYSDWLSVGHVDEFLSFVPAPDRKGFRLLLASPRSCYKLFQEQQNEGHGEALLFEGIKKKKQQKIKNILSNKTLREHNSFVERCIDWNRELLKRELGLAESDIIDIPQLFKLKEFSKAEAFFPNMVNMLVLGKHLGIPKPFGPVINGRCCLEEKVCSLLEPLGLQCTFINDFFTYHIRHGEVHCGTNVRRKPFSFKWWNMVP
UniProt P14598: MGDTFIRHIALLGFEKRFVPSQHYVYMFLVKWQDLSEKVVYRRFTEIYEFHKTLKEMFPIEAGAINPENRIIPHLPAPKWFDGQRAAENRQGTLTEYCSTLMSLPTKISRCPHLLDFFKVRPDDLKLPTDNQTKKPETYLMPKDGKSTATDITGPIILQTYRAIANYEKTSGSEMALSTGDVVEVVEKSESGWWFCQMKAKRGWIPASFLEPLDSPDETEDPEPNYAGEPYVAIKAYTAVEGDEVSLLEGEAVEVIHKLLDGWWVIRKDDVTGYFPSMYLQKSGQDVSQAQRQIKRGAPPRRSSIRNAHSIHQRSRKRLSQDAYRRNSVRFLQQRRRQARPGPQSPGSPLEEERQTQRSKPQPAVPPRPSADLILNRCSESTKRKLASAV
UniProt P19878: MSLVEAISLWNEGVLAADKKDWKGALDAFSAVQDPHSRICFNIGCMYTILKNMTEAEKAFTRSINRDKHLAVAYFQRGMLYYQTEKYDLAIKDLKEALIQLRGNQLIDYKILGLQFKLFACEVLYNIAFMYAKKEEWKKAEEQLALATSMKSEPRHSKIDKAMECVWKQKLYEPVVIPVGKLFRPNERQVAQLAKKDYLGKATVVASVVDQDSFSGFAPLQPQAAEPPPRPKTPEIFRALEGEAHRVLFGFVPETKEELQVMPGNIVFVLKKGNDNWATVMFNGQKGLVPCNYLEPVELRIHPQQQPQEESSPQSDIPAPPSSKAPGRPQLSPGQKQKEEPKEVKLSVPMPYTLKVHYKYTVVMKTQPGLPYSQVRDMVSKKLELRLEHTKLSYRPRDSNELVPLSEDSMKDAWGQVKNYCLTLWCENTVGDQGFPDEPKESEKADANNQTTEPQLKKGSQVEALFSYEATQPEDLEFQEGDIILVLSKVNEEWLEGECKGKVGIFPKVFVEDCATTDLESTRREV

Key:
[1] = molecular target: protein arginine deiminase 4 (PAD4) (human (endogenous in neutrophils)) (UniProt Q9UM07); experiment: affinity purification with mass spectrometry; anti-PAD4 immunoprecipitates from resting or PMA-treated neutrophils; TMT-labelled peptides, LC-MS/MS
[2] = molecular target: protein arginine deiminase 4 (PAD4) (human (endogenous in neutrophils)) (UniProt Q9UM07); experiment: affinity purification with mass spectrometry; anti-PAD4 immunoprecipitates from ionomycin-treated neutrophils; TMT-labelled peptides, LC-MS/MS

Substance: p47^phox (neutrophil cytosol factor 1, NCF1) (from UniProt P14598 1-390)
- binding [1]: binds
- binding [2]: no binding (only neutrophils treated with ionomycin)

Substance: p67^phox (neutrophil cytosol factor 2, NCF2) (from UniProt P19878 1-526)
- binding [1]: binds
